Experimental data as given in patent US20260193317A1, “COMBINATION THERAPY WITH ACTRIIB RECEPTOR VARIANTS AND GLP-1 AGONISTS” (35PHARMA Inc., priority 2023, published 2026).

B1: P1307: murine version of bimagrumab, an antibody targeting ActRIIB and ActRIIA; heavy chain SEQ ID NO: 376, light chain SEQ ID NO: 377 (antibody)
heavy: MDWTWRILFLVAAATGTHAQVQLVQSGAEVKKPGASVKVSCKASGYTFTSSYINWVRQAPGQGLEWMGTINPVSGSTSYAQKFQGRVTMTRDTSISTAYMELSSLRSEDTAVYYCARGGWFDYWGQGTLVTVSSAKTTAPSVYPLAPVCGDTTGSSVTLGCLVKGYFPEPVTLTWNSGSLSSGVHTFPAVLQSDLYTLSSSVTVTSSTWPSQSITCNVAHPASSTKVDKKIEPRGPTIKPCPPCKCPAPNAAGGPSVFIFPPKIKDVLMISLSPIVTCVVVDVSEDDPDVQISWFVNNVEVHTAQTQTHREDYNSTLRVVSALPIQHQDWMSGKEFKCKVNNKDLPAPIERTISKPKGSVRAPQVYVLPPPEEEMTKKQVTLTCMVTDFMPEDIYVEWTNNGKTELNYKNTEPVLDSDGSYFMYSKLRVEKKNWVERNSYSCSVVHEGLHNHHTTKSFSRTPGK
light: MVLQTQVFISLLLWISGAYGDIALTQPASVSGSPGQSITISCTGTSSDVGSYNYVNWYQQHPGKAPKLMIYGVSKRPSGVSNRFSGSKSGNTASLTISGLQAEDEADYYCGTFAGGSYYGVFGGGTKLTVLGQPKSTPTLTVFPPSSEELKENKATLVCLISNFSPSGVTVAWKANGTPITQGVDTSNPTKEGNKFMASSFLHLTSDQWRSHNSFTCQVTHEGDTVEKSLSPAECL

System: DIO mice
Test: Body composition in high fat diet mice, alone and in combination with incretin mimetics
Type: in vivo
Conditions: 21 days

Molecule	food consumption / food intake
P1229: hActRIIB L33W, 14 aa linker, IgG1-DL Fc; SEQ ID 211	did not significantly affect food intake
B1	did not significantly affect food intake
